The target in one experiment is Myc-Smurf2 (UniProt Q9HAU4). The experiment can be described thus: proximity ligation; HEK-293T cells co-transfected with Flag-lamin A or Flag-progerin and Myc-Smurf2; Duolink In Situ Red kit with anti-Flag and anti-Myc antibodies; empty Myc vector as control.
A further experiment concerns the target GST-Smurf2 (UniProt Q9HAU4). The experiment can be described thus: in vitro binding assay; purified GST-Smurf2 with purified Flag-lamin A or Flag-progerin; which was held is not told; both purified.
The target in experiment [1] is Smurf2 (endogenous) (human (endogenous in HEK-293T)) (UniProt Q9HAU4). The experiment can be described thus: co-IP; endogenous proteins in HEK-293T lysates (different lysis conditions: 0.5% or 1% NP-40, freeze-thawing or RIPA buffer); anti-Smurf2 antibody (sc-25511) or rabbit IgG overnight at 4°C, protein G-Sepharose; blot for lamin A/C.

By UniProt entry, the sequences of proteins in these tests, tags left out. Where a name states a change or a piece, a line headed by the entry shows the natural chain unless it says otherwise. Chains listed by the source or under a name are the forms on record and can include a tag or linker. Residues count along the entry.
UniProt Q9HAU4: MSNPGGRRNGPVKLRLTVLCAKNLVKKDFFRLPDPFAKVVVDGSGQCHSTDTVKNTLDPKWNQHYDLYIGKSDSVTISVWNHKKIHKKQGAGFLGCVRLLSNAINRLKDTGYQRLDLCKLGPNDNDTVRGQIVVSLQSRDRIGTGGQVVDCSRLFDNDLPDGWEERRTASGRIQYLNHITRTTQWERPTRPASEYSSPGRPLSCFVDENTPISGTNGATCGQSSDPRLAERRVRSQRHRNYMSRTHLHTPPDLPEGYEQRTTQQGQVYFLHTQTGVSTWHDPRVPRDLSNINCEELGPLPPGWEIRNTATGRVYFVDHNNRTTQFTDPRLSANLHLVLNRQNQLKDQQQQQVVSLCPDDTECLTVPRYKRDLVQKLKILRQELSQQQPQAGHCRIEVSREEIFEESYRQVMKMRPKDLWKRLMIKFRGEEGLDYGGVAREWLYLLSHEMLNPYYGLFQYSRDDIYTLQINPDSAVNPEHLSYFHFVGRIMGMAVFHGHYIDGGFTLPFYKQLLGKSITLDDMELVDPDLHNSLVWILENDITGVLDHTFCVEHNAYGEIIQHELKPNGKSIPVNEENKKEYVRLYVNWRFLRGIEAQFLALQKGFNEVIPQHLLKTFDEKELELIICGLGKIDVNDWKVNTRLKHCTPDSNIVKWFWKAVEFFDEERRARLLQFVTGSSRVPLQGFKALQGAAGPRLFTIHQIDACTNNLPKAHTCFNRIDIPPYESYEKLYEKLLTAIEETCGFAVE
lamin A (endogenous) (P02545, residues 1-646): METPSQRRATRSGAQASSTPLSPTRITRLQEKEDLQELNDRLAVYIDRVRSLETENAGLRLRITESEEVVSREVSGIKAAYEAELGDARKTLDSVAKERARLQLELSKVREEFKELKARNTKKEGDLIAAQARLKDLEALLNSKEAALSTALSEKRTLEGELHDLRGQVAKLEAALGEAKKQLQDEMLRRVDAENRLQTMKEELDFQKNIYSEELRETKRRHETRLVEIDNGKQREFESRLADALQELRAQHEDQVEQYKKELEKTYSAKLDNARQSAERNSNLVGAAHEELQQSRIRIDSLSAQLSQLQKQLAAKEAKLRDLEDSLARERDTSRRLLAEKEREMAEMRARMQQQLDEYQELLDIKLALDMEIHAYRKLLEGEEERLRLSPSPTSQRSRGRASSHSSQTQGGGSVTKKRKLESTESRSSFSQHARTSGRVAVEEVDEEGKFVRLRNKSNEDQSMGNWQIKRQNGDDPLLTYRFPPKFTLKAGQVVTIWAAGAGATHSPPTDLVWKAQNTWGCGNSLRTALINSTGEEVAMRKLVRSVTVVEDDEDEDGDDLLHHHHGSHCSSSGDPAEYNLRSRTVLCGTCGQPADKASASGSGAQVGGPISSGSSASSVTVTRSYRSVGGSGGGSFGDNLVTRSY
Flag–progerin (P02545-6, form named): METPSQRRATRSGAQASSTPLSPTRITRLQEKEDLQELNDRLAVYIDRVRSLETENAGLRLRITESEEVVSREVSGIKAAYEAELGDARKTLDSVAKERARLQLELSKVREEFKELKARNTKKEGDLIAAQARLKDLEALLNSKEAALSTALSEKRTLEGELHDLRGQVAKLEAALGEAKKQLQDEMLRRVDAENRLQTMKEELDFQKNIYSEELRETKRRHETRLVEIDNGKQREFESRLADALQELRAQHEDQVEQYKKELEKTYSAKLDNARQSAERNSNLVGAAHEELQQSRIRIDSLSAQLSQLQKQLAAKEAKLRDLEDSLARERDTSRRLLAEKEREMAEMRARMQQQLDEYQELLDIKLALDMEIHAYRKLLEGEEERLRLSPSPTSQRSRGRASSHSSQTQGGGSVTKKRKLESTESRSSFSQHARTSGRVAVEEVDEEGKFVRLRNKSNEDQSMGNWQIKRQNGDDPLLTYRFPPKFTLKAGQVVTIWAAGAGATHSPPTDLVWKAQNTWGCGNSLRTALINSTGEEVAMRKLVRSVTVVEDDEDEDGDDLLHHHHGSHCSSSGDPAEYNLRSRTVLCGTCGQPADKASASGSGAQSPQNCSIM

Results are given in words; binding and its absence hold for the method and conditions named. For some assays here: In cells and extracts the contact can be indirect. Some entries that bind do so weakly or less than the wild type.

On to “Flag–lamin A (from UniProt P02545 1-646)”, for which the binding result in the experiment with Myc-Smurf2 and with GST-Smurf2 was “binds” each time.
For the substance “lamin A (endogenous) (from UniProt P02545 1-646)”, the binding result in experiment [1] is “binds”.
With “Flag–progerin (from UniProt P02545-6 1-614)”, the binding entry with Myc-Smurf2 and with GST-Smurf2 was “binds” throughout.

Values taken from publication PMC5847874.
